Record: PubChem BioAssay AID652243 (Drosophila RNAi Screening Center, 2013)
Screen: 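Fly genes required for human androgen receptor driven transcription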 (primary screen). Cell system: Drosophila S2R+ cells. Reagents: long dsRNA against Drosophila genes. Duration: 72 h (48 h, then 24 h hormone). Conditions: synthetic androgen R1881 at 10 nM for 24 h. Detection: 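Firefly light from an androgen-responsive reporter and Renilla control light per well, raw and unnormalised, for each of two replicates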. Reading the numbers: firefly reporter light: higher = more light from androgen-responsive reporter; Renilla control light: higher = more constitutive control signal (cell number, transfection). Rule for the call: 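Across duplicate plates, a knock-down whose log firefly/Renilla ratio shifted a set fold down or up from the GFP/LacZ control mean was a hit; the downward cut appears as both 1.5 and 3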. Calls: active = hit: reporter lowered or raised; inactive = no hit.
The screen tested about 24,000 reagents; this is a random part of those that have a named target and a result. Of all reagents, 246 (1%) were called active. 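Plates not normalised; calls are printed but the firefly/Renilla ratio behind them is not deposited; fold cut for lowering reported inconsistently.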 Raw values are not corrected between plates. The record does not give: the amount of reagent.

What did the screen give for ebd1 (GeneID 38082) [DRSC08565]?
firefly reporter light, replicate 1: 7.90e5; firefly reporter light, replicate 2: 6.96e5; Renilla control light, replicate 1: 1.01e6; Renilla control light, replicate 2: 6.22e5; Outcome: inactive

How did the screen score ebd1 (GeneID 38082) [DRSC29439]?
firefly reporter light, replicate 1: 3.98e5; firefly reporter light, replicate 2: 4.13e5; Renilla control light, replicate 1: 6.64e5; Renilla control light, replicate 2: 6.64e5; Outcome: inactive

For CG34429 (GeneID 5740606) [DRSC10120], what was measured?
firefly reporter light, replicate 1: 2.17e5; firefly reporter light, replicate 2: 1.58e5; Renilla control light, replicate 1: 2.18e6; Renilla control light, replicate 2: 2.27e6; Outcome: inactive

What did the screen give for CG42542 (GeneID 8674000) [DRSC15549]?
firefly reporter light, replicate 1: 34028; firefly reporter light, replicate 2: 1.09e5; Renilla control light, replicate 1: 2.61e5; Renilla control light, replicate 2: 7.24e5; Outcome: inactive

With CG42542 (GeneID 8674000) [DRSC22264], what was measured?
firefly reporter light, replicate 1: 5.76e5; firefly reporter light, replicate 2: 6.94e5; Renilla control light, replicate 1: 2.00e6; Renilla control light, replicate 2: 1.88e6; Outcome: inactive

How did the screen score CG42542 (GeneID 8674000) [DRSC26522]?
firefly reporter light, replicate 1: 1.97e5; firefly reporter light, replicate 2: 2.18e5; Renilla control light, replicate 1: 6.68e5; Renilla control light, replicate 2: 6.67e5; Outcome: inactive

What did the screen give for CG42542 (GeneID 8674000) [DRSC26676]?
firefly reporter light, replicate 1: 2.65e5; firefly reporter light, replicate 2: 3.28e5; Renilla control light, replicate 1: 7.56e5; Renilla control light, replicate 2: 7.47e5; Outcome: inactive

What did the screen give for CG14448 (GeneID 40497) [DRSC11705]?
firefly reporter light, replicate 1: 2.18e5; firefly reporter light, replicate 2: 2.75e5; Renilla control light, replicate 1: 3.14e6; Renilla control light, replicate 2: 3.38e6; Outcome: inactive

Which result is listed for CG14448 (GeneID 40497) [DRSC30062]?
firefly reporter light, replicate 1: 8.11e5; firefly reporter light, replicate 2: 7.62e5; Renilla control light, replicate 1: 8.24e5; Renilla control light, replicate 2: 7.65e5; Outcome: inactive

What did the screen give for betaTry (GeneID 47901) [DRSC07582]?
firefly reporter light, replicate 1: 3.80e5; firefly reporter light, replicate 2: 3.95e5; Renilla control light, replicate 1: 3.00e6; Renilla control light, replicate 2: 2.84e6; Outcome: inactive

What did the screen give for betaTry (GeneID 47901) [DRSC22377]?
firefly reporter light, replicate 1: 5.67e5; firefly reporter light, replicate 2: 6.83e5; Renilla control light, replicate 1: 3.12e6; Renilla control light, replicate 2: 1.96e6; Outcome: inactive

What did the screen give for betaTry (GeneID 47901) [DRSC29939]?
firefly reporter light, replicate 1: 4.50e5; firefly reporter light, replicate 2: 4.85e5; Renilla control light, replicate 1: 1.62e6; Renilla control light, replicate 2: 1.52e6; Outcome: inactive

2 of these entries, set out differently.
{"Gene":"CG14448 (GeneID 40497)","amplicon":"DRSC30062","firefly reporter light, replicate 1":8.11e5,"firefly reporter light, replicate 2":7.62e5,"Renilla control light, replicate 1":8.24e5,"Renilla control light, replicate 2":7.65e5,"Outcome":"inactive"}
{"Gene":"betaTry (GeneID 47901)","amplicon":"DRSC07582","firefly reporter light, replicate 1":3.80e5,"firefly reporter light, replicate 2":3.95e5,"Renilla control light, replicate 1":3.00e6,"Renilla control light, replicate 2":2.84e6,"Outcome":"inactive"}

The results go on.
Which result is listed for Cpr65Av (GeneID 318014) [DRSC09727]?
firefly reporter light, replicate 1: 2.52e5; firefly reporter light, replicate 2: 2.29e5; Renilla control light, replicate 1: 3.29e6; Renilla control light, replicate 2: 2.93e6; Outcome: inactive

What is on record for Cpr65Av (GeneID 318014) [DRSC26499]?
firefly reporter light, replicate 1: 2.36e5; firefly reporter light, replicate 2: 1.58e5; Renilla control light, replicate 1: 5.66e5; Renilla control light, replicate 2: 4.06e5; Outcome: inactive

What is on record for SpdS (GeneID 41167) [DRSC16408]?
firefly reporter light, replicate 1: 1.37e5; firefly reporter light, replicate 2: 1.70e5; Renilla control light, replicate 1: 3.01e6; Renilla control light, replicate 2: 2.08e6; Outcome: inactive

What is on record for CG33158 (GeneID 39834) [DRSC09708]?
firefly reporter light, replicate 1: 4.75e5; firefly reporter light, replicate 2: 6.01e5; Renilla control light, replicate 1: 2.79e6; Renilla control light, replicate 2: 4.63e6; Outcome: inactive

What is on record for CG33158 (GeneID 39834) [DRSC09709]?
firefly reporter light, replicate 1: 2.73e5; firefly reporter light, replicate 2: 3.09e5; Renilla control light, replicate 1: 2.59e6; Renilla control light, replicate 2: 2.05e6; Outcome: inactive

What did the screen give for CG33158 (GeneID 39834) [DRSC10438]?
firefly reporter light, replicate 1: 2.40e5; firefly reporter light, replicate 2: 1.91e5; Renilla control light, replicate 1: 1.95e6; Renilla control light, replicate 2: 1.49e6; Outcome: inactive

Which result is listed for CG32669 (GeneID 326229) [DRSC18864]?
firefly reporter light, replicate 1: 1.36e6; firefly reporter light, replicate 2: 7.89e5; Renilla control light, replicate 1: 2.06e6; Renilla control light, replicate 2: 9.85e5; Outcome: inactive

What is on record for alpha-Est8 (GeneID 40899) [DRSC12620]?
firefly reporter light, replicate 1: 59939; firefly reporter light, replicate 2: 59820; Renilla control light, replicate 1: 1.98e6; Renilla control light, replicate 2: 1.08e6; Outcome: inactive

With Rfx (GeneID 41266) [DRSC16820], what was measured?
firefly reporter light, replicate 1: 1.42e5; firefly reporter light, replicate 2: 1.05e5; Renilla control light, replicate 1: 1.73e6; Renilla control light, replicate 2: 2.48e6; Outcome: inactive

What is on record for CG30222 (GeneID 50129) [DRSC04125]?
firefly reporter light, replicate 1: 1.42e5; firefly reporter light, replicate 2: 1.92e5; Renilla control light, replicate 1: 1.05e6; Renilla control light, replicate 2: 5.59e5; Outcome: inactive

With CG30222 (GeneID 50129) [DRSC04262], what was measured?
firefly reporter light, replicate 1: 4.22e5; firefly reporter light, replicate 2: 4.62e5; Renilla control light, replicate 1: 2.88e6; Renilla control light, replicate 2: 2.53e6; Outcome: inactive

With CG13313 (GeneID 39022) [DRSC09984], how do the results read?
firefly reporter light, replicate 1: 1.98e5; firefly reporter light, replicate 2: 2.19e5; Renilla control light, replicate 1: 1.88e6; Renilla control light, replicate 2: 1.81e6; Outcome: inactive

Which result is listed for CG13313 (GeneID 39022) [DRSC28463]?
firefly reporter light, replicate 1: 4.36e5; firefly reporter light, replicate 2: 6.65e5; Renilla control light, replicate 1: 1.27e6; Renilla control light, replicate 2: 1.57e6; Outcome: inactive

For CG15734 (GeneID 32177) [DRSC19701], what does the deposit list?
firefly reporter light, replicate 1: 4.90e5; firefly reporter light, replicate 2: 4.44e5; Renilla control light, replicate 1: 3.83e6; Renilla control light, replicate 2: 3.92e6; Outcome: inactive

With JMJD7 (GeneID 39514) [DRSC09703], how do the results read?
firefly reporter light, replicate 1: 5.76e5; firefly reporter light, replicate 2: 6.59e5; Renilla control light, replicate 1: 2.90e6; Renilla control light, replicate 2: 3.62e6; Outcome: inactive
